This passage reports binding results from article PMC4236683.

These are yes or no findings as the source states them, for the method shown. For some of these results: In cells and extracts the contact can be indirect. Some binding calls cover weakened binding; strength is not graded here. Where a sequence is shown, tags or fusion partners need not be part of it.

Test [1] addresses T1, 6xMyc N-terminal-tagged full-length (FL)-Sema5A (rat) (UniProt D3ZTD8).
T1 sequence: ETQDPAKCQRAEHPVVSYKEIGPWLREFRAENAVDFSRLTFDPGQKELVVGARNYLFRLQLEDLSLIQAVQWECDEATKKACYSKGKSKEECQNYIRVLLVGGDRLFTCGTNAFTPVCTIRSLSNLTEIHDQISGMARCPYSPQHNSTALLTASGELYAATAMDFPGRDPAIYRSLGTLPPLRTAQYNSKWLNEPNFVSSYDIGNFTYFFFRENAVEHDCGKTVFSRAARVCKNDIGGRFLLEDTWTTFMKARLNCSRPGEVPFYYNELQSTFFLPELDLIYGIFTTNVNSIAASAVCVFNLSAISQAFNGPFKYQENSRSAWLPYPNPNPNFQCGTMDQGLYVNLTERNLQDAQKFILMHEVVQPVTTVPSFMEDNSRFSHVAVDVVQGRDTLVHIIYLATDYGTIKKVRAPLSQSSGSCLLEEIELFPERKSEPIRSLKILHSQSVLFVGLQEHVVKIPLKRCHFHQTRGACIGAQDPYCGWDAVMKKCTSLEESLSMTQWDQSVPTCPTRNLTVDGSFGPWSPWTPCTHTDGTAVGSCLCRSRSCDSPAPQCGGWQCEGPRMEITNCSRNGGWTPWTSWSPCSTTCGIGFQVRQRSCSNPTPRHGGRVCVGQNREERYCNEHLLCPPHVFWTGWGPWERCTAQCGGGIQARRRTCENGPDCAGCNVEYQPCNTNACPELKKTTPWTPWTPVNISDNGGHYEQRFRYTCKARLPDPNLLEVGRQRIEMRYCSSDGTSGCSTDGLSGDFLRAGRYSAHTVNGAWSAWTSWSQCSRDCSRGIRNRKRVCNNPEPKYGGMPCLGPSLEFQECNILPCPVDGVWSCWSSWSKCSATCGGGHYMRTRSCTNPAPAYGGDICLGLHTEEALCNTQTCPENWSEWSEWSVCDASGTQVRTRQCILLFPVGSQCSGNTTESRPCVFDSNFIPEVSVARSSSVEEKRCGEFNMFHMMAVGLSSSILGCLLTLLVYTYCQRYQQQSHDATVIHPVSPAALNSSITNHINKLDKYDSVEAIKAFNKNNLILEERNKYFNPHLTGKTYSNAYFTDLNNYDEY
The test is described as follows: binding of AP-clustered Fc fusion protein to transfected cells; COS7 cells transfected with PlexA or semaphorin constructs, incubated 75 min in OptiMEM with Fc fusion protein preclustered with anti-human IgG conjugated to alkaline phosphatase; rinsed, fixed, developed with NBT/BCIP; only the binder purified.

In test [2] the target is T2, membrane-bound Sema5A lacking the seven TSRs (6xMyc-Sema5A^ΔTSR) (rat) (UniProt D3ZTD8).
T2 sequence: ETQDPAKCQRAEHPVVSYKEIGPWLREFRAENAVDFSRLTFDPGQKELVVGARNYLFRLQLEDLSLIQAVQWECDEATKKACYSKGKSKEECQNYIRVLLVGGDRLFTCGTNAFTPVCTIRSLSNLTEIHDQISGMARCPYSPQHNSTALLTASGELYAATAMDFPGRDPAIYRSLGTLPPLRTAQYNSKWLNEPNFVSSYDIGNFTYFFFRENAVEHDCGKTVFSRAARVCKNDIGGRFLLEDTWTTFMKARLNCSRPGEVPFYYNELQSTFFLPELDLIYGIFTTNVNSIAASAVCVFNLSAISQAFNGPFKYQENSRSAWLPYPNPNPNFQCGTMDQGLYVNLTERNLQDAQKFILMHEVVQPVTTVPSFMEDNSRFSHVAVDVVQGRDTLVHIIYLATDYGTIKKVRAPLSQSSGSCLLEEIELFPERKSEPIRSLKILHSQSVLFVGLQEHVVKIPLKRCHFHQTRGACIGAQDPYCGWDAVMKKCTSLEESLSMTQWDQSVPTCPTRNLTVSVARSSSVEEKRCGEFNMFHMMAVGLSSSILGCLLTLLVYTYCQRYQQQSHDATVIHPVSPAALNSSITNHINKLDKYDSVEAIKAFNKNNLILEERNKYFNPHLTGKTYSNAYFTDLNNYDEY
Described as above.

Another test concerns the target T3, Sema6A (UniProt O35464).
T3 sequence: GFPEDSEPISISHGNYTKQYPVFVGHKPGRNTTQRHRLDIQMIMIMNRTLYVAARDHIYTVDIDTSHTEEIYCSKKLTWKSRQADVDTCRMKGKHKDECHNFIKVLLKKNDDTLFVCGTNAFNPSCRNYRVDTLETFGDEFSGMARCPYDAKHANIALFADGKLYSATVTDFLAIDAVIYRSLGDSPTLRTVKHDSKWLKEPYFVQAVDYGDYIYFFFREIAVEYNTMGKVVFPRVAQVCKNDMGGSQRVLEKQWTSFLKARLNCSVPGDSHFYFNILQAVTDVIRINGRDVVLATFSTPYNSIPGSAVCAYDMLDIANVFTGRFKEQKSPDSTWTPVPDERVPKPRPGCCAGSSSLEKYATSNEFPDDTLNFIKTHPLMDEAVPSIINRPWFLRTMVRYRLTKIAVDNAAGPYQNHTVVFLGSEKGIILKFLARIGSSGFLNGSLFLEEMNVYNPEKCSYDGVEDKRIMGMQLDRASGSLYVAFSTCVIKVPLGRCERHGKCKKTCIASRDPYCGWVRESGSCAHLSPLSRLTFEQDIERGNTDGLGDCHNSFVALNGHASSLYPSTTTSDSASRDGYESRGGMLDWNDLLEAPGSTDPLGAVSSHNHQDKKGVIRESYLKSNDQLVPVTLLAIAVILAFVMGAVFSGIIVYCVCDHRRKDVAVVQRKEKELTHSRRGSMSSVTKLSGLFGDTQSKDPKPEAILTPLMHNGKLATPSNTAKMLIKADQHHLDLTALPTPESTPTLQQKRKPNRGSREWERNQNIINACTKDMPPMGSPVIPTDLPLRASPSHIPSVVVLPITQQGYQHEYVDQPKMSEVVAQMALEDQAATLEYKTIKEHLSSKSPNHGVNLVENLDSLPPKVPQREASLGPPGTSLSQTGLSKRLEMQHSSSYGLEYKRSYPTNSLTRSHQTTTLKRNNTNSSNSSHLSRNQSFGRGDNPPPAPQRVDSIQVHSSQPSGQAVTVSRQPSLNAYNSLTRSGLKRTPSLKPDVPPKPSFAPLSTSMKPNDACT
The description is as above.

Test [3] deals with T4, Sema5A-Fc (Sema5A ectodomain fused to Fc) (rat) (UniProt D3ZTD8).
T4 sequence: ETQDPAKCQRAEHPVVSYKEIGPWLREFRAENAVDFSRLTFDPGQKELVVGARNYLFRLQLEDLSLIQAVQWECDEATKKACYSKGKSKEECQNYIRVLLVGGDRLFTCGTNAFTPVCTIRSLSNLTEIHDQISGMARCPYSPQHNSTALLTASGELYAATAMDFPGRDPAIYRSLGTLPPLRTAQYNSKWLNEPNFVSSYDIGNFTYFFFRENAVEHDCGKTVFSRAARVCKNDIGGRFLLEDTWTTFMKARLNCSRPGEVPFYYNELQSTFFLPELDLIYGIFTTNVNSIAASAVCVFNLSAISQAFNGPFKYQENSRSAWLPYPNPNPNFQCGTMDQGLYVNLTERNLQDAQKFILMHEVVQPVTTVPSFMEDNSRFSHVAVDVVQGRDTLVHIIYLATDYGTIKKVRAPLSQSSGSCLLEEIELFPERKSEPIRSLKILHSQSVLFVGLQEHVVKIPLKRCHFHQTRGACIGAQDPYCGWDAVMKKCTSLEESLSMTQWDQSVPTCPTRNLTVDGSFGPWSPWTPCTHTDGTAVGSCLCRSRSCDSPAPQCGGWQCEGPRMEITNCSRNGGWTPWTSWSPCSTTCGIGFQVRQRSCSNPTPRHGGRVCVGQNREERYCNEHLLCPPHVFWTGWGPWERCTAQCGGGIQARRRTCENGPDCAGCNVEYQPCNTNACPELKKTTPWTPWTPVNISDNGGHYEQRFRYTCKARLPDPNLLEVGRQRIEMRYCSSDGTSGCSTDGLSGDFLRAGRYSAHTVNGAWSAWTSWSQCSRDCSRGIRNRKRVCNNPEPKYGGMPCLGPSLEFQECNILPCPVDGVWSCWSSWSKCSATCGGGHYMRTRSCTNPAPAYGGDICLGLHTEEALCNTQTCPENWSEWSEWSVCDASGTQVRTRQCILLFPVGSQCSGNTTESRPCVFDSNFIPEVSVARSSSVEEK
The test is described as follows: pull-down; Sema5A-Fc or human IgG (50 nM) incubated with 6xMyc-tagged PlexA1 or PlexA2 ectodomain produced in HEK293T cells, pulled down with Protein G Plus/Protein A-agarose beads, anti-myc immunoblot; only the target purified. In general terms: A western blot detects proteins with antibodies after separation by electrophoresis.

B1: sema domain of PlexA4 fused to Fc (PlexA4^SD-Fc) (Fc fusion, UniProt Q80UG2 24-506)
chain: TLLPRQPPQLSQKPSFVTFRGEPAEGFNHLVVDERTGHIYLGAVNRIYKLSSDLKVLVTHQTGPDEDNPKCYPPRIVQTCNEPLASTNNVNKMLLIDYKENRLIACGSLYQGICKLLRLEDLFKLGEPFHKKEHYLSGVNESGSVFGVIVSYSNFDDKLFIATAVDGKPEYFPTISSRKLTKNSEADGMFAYVFHDEFVASMIKIPSDTFTVIPDFDIYYVYGFSSGNFVYFLTLQPEMVSPPGSTTKEQVYTSKLVRLCKEDTAFNSYVEVPIGCERNGVEYRLLQAAYLSKAGAVLGRTLGVRPDDDLLFTVFSKGQKRKMKSLDESALCIFILKQINDRIKDRLQSCYRGEGTLDLAWLKVKDIPCSSALLTIDDNFCGLDMNAPLGVSEMVRGIPVFTEDRDRMTSVIAYVYKNHSLAFVGTKSGKLKKIRVDGPKGNALQYETVQVVDSGPVLRDMAFSKDHEQLYIMSERQLTRVPV
On to B1, for which the figures for the binding result (in test [1]; in test [2]; in the test with Sema6A) were “no binding”, “no binding” and “binds”, respectively.

B2: 6xMyc-tagged PlexA2 ectodomain (6x-myc-PlexA2^ect) (domain or fragment, UniProt P70207 35-1237)
chain: MPQYSTFHSENRDWTFNHLTVHRRTGAVYVGAINRVYKLTGNLTIQVAHKTGPEEDNKACYPPLIVQPCSEVLTLTNNVNKLLIIDYSENRLLACGSLYQGVCKLLRLDDLFILVEPSHKKEHYLSSVNKTGTMYGVIVRSEGEDGKLFIGTAVDGKQDYFPTLSSRKLPRDPESSAMLDYELHSDFVSSLIKIPSDTLALVSHFDIFYIYGFASGGFVYFLTVQPETPDGMAINSAGDLFYTSRIVRLCKDDPKFHSYVSLPFGCTRAGVEYRLLQAAYLAKPGEALAQAFNISSDEDVLFAIFSKGQKQYHHPPDDSALCAFPIRAINLQIKERLQSCYHGEGNLELNWLLGKDVQCTKAPVPIDDNFCGLDINQPLGGSTPVEGLTLYTTSRDRLTSVASYVYNGYSVVFVGTKSGKLKKIRADGPPHGGVQYEMVSVFKDGSPILRDMAFSINQLYLYVMSERQVTRVPVESCEQYTTCGECLSSGDPHCGWCALHNMCSRRDKCQRAWEANRFAASISQCMSLEVHPNSISVSDHSRLLSLVVNDAPNLSEGIACAFGNLTEVEGQVSGSQVICISPGPKDVPVIPLDQDWFGLELQLRSKETGKIFVSTEFKFYNCSAHQLCLSCVNSAFRCHWCKYRNLCTHDPTTCSFQEGRINVSEDCPQLVPTEEILIPVGEVKPITLKARNLPQPQSGQRGYECVLSIQGAVHRVPALRFNSSSVQCQNSSYQYDGMDISNLAVDFAVVWNGNFIIDNPQDLKVHLYKCAAQRESCGLCLKADHKFECGWCSGERRCTLHQHCPSTSSPWLDWSSHNVKCSNPQITEILTVSGPPEGGTRVTIHGVNLGLDFSEIAHHVQVAGVPCTPIPGEYIIAEQIVCEMGHAVIGTTSGPVRLCIGECKPEFMTKSHQQYTFVNPSVLSLSPIRGPESGGTMVTITGHYLGAGSSVAVYLGNQTCEFYGRSMNEIVCVSPPSSNGLGPVPVSVSVDRARVDSSLQFEYIDDPRVQRIEPEWSITSGHTPLTITGFNLDVIQEPRVRVKFNGKESVNVCTVVNTTTLTCLAPSLTSDYRPGLDTVERPDEFGFLFNNVQSLLIYNDTKFIYYPNPTFELLSPTGILDQKPGSPIILKGKNLCPPASGGAKLNYTVMIGETPCTVTVSETQLLCEPPNLTGQHKVMVHVGGMVFSPGSVSVISDSLLTLP
In the case of B2, the binding result in test [3] is recorded as “binds”.
